# Source: PubChem BioAssay AID2685 (National Center for Advancing Translational Sciences (NCATS), 2010)
# The list shows a part of the results. Shown are side measurements of this screen, not its main read-out; they come without a call. The list favours compounds with an active or inconclusive main result. The note in brackets gives the kind of curve behind each potency; many fits are weak.
# Experiment: qHTS Assay for Lipid Storage Modulators in Drosophila S3 Cells;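 as to cell number change: cells counted by Cell Tracker Red CMTPX staining in the red channel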
# Conditions: BODIPY lipid droplet fluorescence, 18-24 h; for cell number change: measured here: cell count max response, cells fed with added oleic acid
# Summary of the method: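 Drosophila S3 cells got compounds at several concentrations plus oleic acid (400 uM solution). Laser-scanning cytometry with 488 nm excitation read lipid droplets at 500-530 nm and cells at 575-640 nm. Percent activity was relative to 20 uM Triacsin C.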
# [1] = measured here: cell number channel AC50, cells fed with added oleic acid
# [2] = measured here: lipid fluorescence (Fed channel) AC50, cells fed with added oleic acid
compound,measurement,setting,value
O=C(O)/C=C/C(=O)Nc1ccc(OC(F)(F)F)cc1Br,cell number change,,-48.2%
same,AC50,[1],"18.4 µM [falling, single point]"
same,AC50,[2],"29.1 µM [falling, single point]"
CC(Sc1nnc(-c2ccccc2F)n1C1CC1)C(=O)NCc1ccco1 (centres undefined),cell number change,,-13.2%
same,AC50,[2],"11.6 µM [falling, partial curve]"
Cc1cc(C)nc(NS(=O)(=O)c2ccc(N/C=C/C(=O)c3ccc(Cl)c(Cl)c3)cc2)n1,cell number change,,-21.9%
O=C(O)CCCC(=O)Nc1cccc(-c2nc3ccccc3[nH]2)c1,cell number change,,-25.5%
same,AC50,[2],"2.31 µM [falling, full curve]"
CC(=O)C(C)Sc1nnc(-c2ccccc2F)n1C1CC1 (centres undefined),cell number change,,-38.1%
same,AC50,[1],"9.2 µM [falling, partial curve]"
same,AC50,[2],"6.51 µM [rising, single point]"
CCOc1ncccc1C(=O)OCC(=O)Nc1cccc(S(N)(=O)=O)c1,cell number change,,-0.541%
same,AC50,[2],"0.092 µM [rising, full curve, poor fit]"
Cc1c(C)n(CCC#N)c2ccccc12,cell number change,,-5.41%
same,AC50,[2],"6.51 µM [falling, partial curve, poor fit]"
COc1ccc(NS(=O)(=O)c2ccc(O)c(C(=O)OCC(=O)Nc3ccc4c(c3)OCCO4)c2)cc1,cell number change,,8.7%
same,AC50,[2],"6.51 µM [rising, single point]"
CCN(CC)S(=O)(=O)c1ccc(C2CNC(=O)C2)cc1 (centres undefined),cell number change,,-31.1%
same,AC50,[1],"0.259 µM [falling, full curve, poor fit]"
same,AC50,[2],"0.92 µM [falling, partial curve]"
CC1CCN(C(=S)NC(=O)c2ccccc2)CC1,cell number change,,12.9%
same,AC50,[2],"9.2 µM [rising, partial curve]"
CCOC(=O)c1csc(NC(=O)C2=COCCO2)n1,cell number change,,-28.9%
CCOCCc1nnc(NC(=O)c2cccs2)s1,cell number change,,4.03%
same,AC50,[2],"1.3 µM [falling, full curve]"
Fc1ccccc1CNC(=S)Nc1ccc(Cl)cc1,cell number change,,-41.6%
same,AC50,[1],"9.2 µM [falling, partial curve]"
same,AC50,[2],"10.3 µM [falling, partial curve]"
COc1ccc(OCC(=O)N2CCN(S(=O)(=O)c3ccc(Cl)s3)CC2)cc1,cell number change,,28.7%
same,AC50,[2],"20.6 µM [rising, single point]"
COC(=O)c1cc2cc(Cl)ccc2nc1SC,cell number change,,-1.98%
same,AC50,[2],"0.00517 µM [rising, full curve, poor fit]"
Nc1ncc(Br)cc1S(=O)(=O)NCCC(=O)NCCc1ccccc1,cell number change,,11.6%
same,AC50,[2],"1.46 µM [rising, single point]"
COc1ccc(C(=O)NCC(c2ccco2)N2CCOCC2)cc1OC (centres undefined),AC50,[1],"3.66 µM [falling, single point]"
COc1ccc2oc(C)c(C(N)=O)c2c1,cell number change,,-8.07%
same,AC50,[2],"4.11 µM [falling, partial curve]"
O=C(CCN1C(=O)/C(=C/c2ccccc2Cl)SC1=S)NCCc1ccc(O)cc1,cell number change,,-4.2%
same,AC50,[2],"29.1 µM [rising, single point]"
COC(=O)c1ccc(NC(=O)C[n+]2ccccc2)cc1,cell number change,,-1.65%
same,AC50,[2],"32.6 µM [rising, single point]"
O=C(CSc1ccc2c(c1)OCCO2)Nc1ccc(N2CCOCC2)cc1,AC50,[1],"1.46 µM [rising, full curve]"
same,AC50,[2],"1.84 µM [rising, partial curve]"
O=C(c1ccoc1)N1CCCC(N2CCN(c3ccc(F)cc3)CC2)C1 (centres undefined),cell number change,,6.91%
same,AC50,[2],"23.1 µM [falling, single point]"
CC12CCC(=O)N1C(C(=O)NCCc1ccc(S(N)(=O)=O)cc1)CS2 (centres undefined),cell number change,,33%
same,AC50,[1],"0.291 µM [rising, full curve, poor fit]"
same,AC50,[2],"29.1 µM [rising, single point]"
COC(=O)c1cc(NC(=O)c2ccccc2)c(=O)oc1C,cell number change,,29%
CN(C)CCNC(=O)Cc1ncc(C(F)(F)F)cc1Cl,cell number change,,-10%
same,AC50,[2],"0.146 µM [falling, full curve, poor fit]"
COc1ccc(C(CNC(=O)CNC(=O)c2ccccc2)N2CCCC2)cc1 (centres undefined),cell number change,,5.31%
Cc1ccc2c3c([nH]c2c1C)-c1nonc1CC3,cell number change,,-49.9%
same,AC50,[1],"13 µM [falling, partial curve]"
same,AC50,[2],"23.1 µM [falling, partial curve]"
CCOC(=O)C1CCN(C(=O)C2CCN(S(=O)(=O)c3cccc4nsnc34)CC2)CC1,cell number change,,0.236%
same,AC50,[2],"6.51 µM [falling, single point]"
CCOC(=O)N1CCC(N2CC34C=CC(O3)C(C(=O)Nc3ccc(F)cc3)C4C2=O)CC1 (centres undefined),cell number change,,21.9%
same,AC50,[2],"0.651 µM [rising, full curve, poor fit]"
Cc1ccccc1C(=O)N1CCN(CCNC(=O)C(=O)Nc2ccc(Br)cc2)CC1,cell number change,,-7.92%
same,AC50,[2],"11.6 µM [rising, single point]"
Cc1ccc(C(C)C)c(OCCNC(=S)Nc2cccc3ccccc23)c1,cell number change,,-74.1%
same,AC50,[2],"29.1 µM [falling, single point]"
Cc1cc(C)n(CCc2nc(-c3ccc(C(C)(C)C)cc3)cs2)n1,cell number change,,-57.7%
same,AC50,[1],"16.4 µM [falling, partial curve]"
same,AC50,[2],"13 µM [falling, partial curve]"
Cc1cc(C)n(CC(=O)NNC(=O)COc2ccc(Cl)cc2Cl)n1,cell number change,,0.937%
same,AC50,[2],"25.9 µM [rising, partial curve]"
O=C(CS(=O)(=O)c1ccc(F)cc1)Nc1nnc(-c2ccccc2Cl)o1,cell number change,,31.9%
same,AC50,[1],"14.6 µM [rising, single point]"
O=C1OC(N2CCN(C/C=C/c3ccccc3)CC2)c2ccccc21 (centres undefined),cell number change,,-2.48%
COc1ccc(-n2c(SCC(=O)O)nc3sc4c(c3c2=O)CCCC4)cc1,cell number change,,16.8%
same,AC50,[2],"9.2 µM [rising, partial curve, poor fit]"
O=C(Cc1ccc(Br)cc1)Nc1ccc(S(=O)(=O)N2CCCC2)cc1,cell number change,,-25.8%
same,AC50,[2],"29.1 µM [falling, single point]"
CCOC(=O)C1=C(Nc2cccc(Cl)c2)OCC1=O,cell number change,,39%
same,AC50,[1],"23.1 µM [rising, single point]"
Cc1nc(Nc2cccc(Cl)c2)c2oc3ccccc3c2n1,cell number change,,-5.56%
same,AC50,[2],"11.6 µM [rising, single point]"

# 3 neighbouring entries from above, quoted:
compound,measurement,setting,value
CCN(CC)S(=O)(=O)c1ccc(C2CNC(=O)C2)cc1 (centres undefined),AC50,[2],"0.92 µM [falling, partial curve]"
CC1CCN(C(=S)NC(=O)c2ccccc2)CC1,cell number change,,12.9%
same,AC50,[2],"9.2 µM [rising, partial curve]"
